According to patent US4147767A, “Albumin medicament carrier system” (priority 1977, dated 1979):
The name of at least one read-out is uncertain.

Tested on: histamine-contracted guinea pig tracheal tissue
Test: Guinea pig tracheal tissue relaxation test with drug released from spherules
Format: cell-based

Row | Compound | % Relaxation (terbutaline dose 0.1 - 1.0 micrograms/ml) | % Relaxation (salbutamol dose 0.1 micrograms/ml)
1 | CC(C)(C)NCC(O)c1cc(O)cc(O)c1 (centres unmarked) [Pure Terbutaline, Terbutaline] | 100% | 
2 | CC(C)(C)NCC(O)c1ccc(O)c(CO)c1 (centres unmarked) [Salbutamol] |  | 100%
